PubChem BioAssay AID652243 | Drosophila RNAi Screening Center – 2013
Screen: 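Knock-downs that decrease or increase androgen receptor reporter signal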 (primary screen). Cells: Drosophila S2R+ cells. Reagent: long dsRNA against Drosophila genes. Timing: 72 h (48 h, then 24 h hormone). Conditions: synthetic androgen R1881 at 10 nM for 24 h. Measurement: 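Firefly light from an androgen-responsive reporter and Renilla control light per well, raw and unnormalised, for each of two replicates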. Reading the numbers: firefly reporter light: higher = more light from androgen-responsive reporter; Renilla control light: higher = more constitutive control signal (cell number, transfection). Rule for the call: 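Across duplicate plates, a knock-down whose log firefly/Renilla ratio shifted a set fold down or up from the GFP/LacZ control mean was a hit; the downward cut appears as both 1.5 and 3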. Calls: active = hit: reporter lowered or raised; inactive = no hit.
The screen tested about 24,000 reagents; below is an unselected part of those that have a named target and a result. In the full data, 246 (1%) were called active. 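Plates not normalised; calls are printed but the firefly/Renilla ratio behind them is not deposited; fold cut for lowering reported inconsistently.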 Raw values vary from plate to plate and are shown uncorrected. Unmarked entries are inactive. Names joined by + are all predicted targets of the reagent. Reagent sequences are not shown. The record does not give: the amount of reagent.

no.	predicted target	amplicon	firefly reporter light, replicate 1	firefly reporter light, replicate 2	Renilla control light, replicate 1	Renilla control light, replicate 2
1	mRpL41	DRSC06257	60616	90190	8.69e5	8.69e5
2	mRpL41	DRSC29395	3.97e5	4.86e5	1.62e6	1.62e6
3	mRpL41	DRSC39029	6.91e5	7.77e5	2.08e6	1.83e6
4	CG11360	DRSC17134	2.60e5	3.07e5	3.71e6	3.29e6
5	CR17438	DRSC18125	4.03e5	4.25e5	2.56e6	2.73e6
6	CR17438	DRSC25672	38914	12911	2675	319
7	Eglp1	DRSC04502	9.85e5	8.18e5	1.47e6	1.51e6
8	sprt	DRSC07323	7.96e5	8.64e5	1.96e6	1.81e6
9	CG8543	DRSC10990	2.38e5	2.38e5	3.77e6	3.30e6
10	CG8543	DRSC22809	4.83e5	9.02e5	1.03e6	1.82e6
11	CG8543	DRSC25399	6.31e5	9.22e5	1.34e6	1.52e6
12	Lcp65Ab2 + Lcp65Ab1	DRSC10340	1.85e5	2.01e5	1.93e6	2.06e6
13	Lcp65Ab2 + Lcp65Ab1	DRSC10343	1.95e5	2.08e5	1.51e6	1.69e6
14	Lcp65Ab2 + Lcp65Ab1	DRSC29739	4.62e5	4.09e5	1.52e6	1.30e6
15	VhaAC39-1	DRSC18242	1.19e5	1.15e5	1.09e6	9.21e5
16	VhaAC39-1	DRSC27608	2.35e5	2.37e5	6.58e5	8.31e5
17	alphaKap4	DRSC09823	1.24e5	96323	1.36e6	1.02e6
18	pip	DRSC11382	2.21e5	1.88e5	2.97e6	1.52e6
19	pip	DRSC28579	1.03e6	8.95e5	2.33e6	1.70e6
20	CG31664	DRSC22084	7.17e5	7.21e5	1.96e6	2.19e6
21	Polr2H	DRSC11642	45850	1.11e5	4.36e5	4.69e5
22	CG10508	DRSC11612	84449	1.14e5	5.06e5	5.71e5
23	CG10508	DRSC11613	3.28e5	3.63e5	3.22e6	3.19e6
24	MRP	DRSC02942	8.04e5	9.06e5	1.58e6	2.14e6
25	CG18343	DRSC06726	3.23e5	3.21e5	1.53e6	1.78e6
26	CG6664	DRSC10690	25452	67385	3.78e5	4.45e5
27	CG6664	DRSC25430	5.48e5	7.49e5	6.12e5	8.26e5
28	CG6664	DRSC39058	9.68e5	8.43e5	2.08e6	2.06e6
29	pst	DRSC11003	8.43e5	6.53e5	1.58e6	1.45e6
30	cos	DRSC07598	8.66e5	8.46e5	2.26e6	1.92e6
31	cos	DRSC28447	3.01e5	5.51e5	9.06e5	1.44e6
32	CG32106	DRSC09219	2.06e5	1.76e5	4.43e5	3.68e5
33	Dip-C	DRSC15855	44751	1.52e5	3.86e5	7.80e5
34	CG5002	DRSC06911	5.08e5	3.40e5	5.88e5	4.92e5
35	Or92a	DRSC16771	2.04e5	3.13e5	3.14e6	2.77e6
36	CG31321	DRSC13028	83997	88655	2.17e5	2.55e5
37	CG31321	DRSC27335	2.20e5	2.55e5	7.64e5	6.85e5
38	CenG1A	DRSC02538	2.47e5	2.47e5	1.94e6	2.20e6
39	CenG1A	DRSC03505	2.96e5	2.70e5	2.65e6	2.37e6
40	CenG1A	DRSC03506	1.69e5	2.00e5	1.29e6	1.61e6
41	CenG1A	DRSC28029	7.58e5	4.35e5	1.90e6	1.58e6

Not a retest: entries from further up.
no.	predicted target	amplicon	firefly reporter light, replicate 1	firefly reporter light, replicate 2	Renilla control light, replicate 1	Renilla control light, replicate 2
1	mRpL41	DRSC06257	60616	90190	8.69e5	8.69e5
2	mRpL41	DRSC29395	3.97e5	4.86e5	1.62e6	1.62e6
3	mRpL41	DRSC39029	6.91e5	7.77e5	2.08e6	1.83e6
4	CG11360	DRSC17134	2.60e5	3.07e5	3.71e6	3.29e6
5	CR17438	DRSC18125	4.03e5	4.25e5	2.56e6	2.73e6
6	CR17438	DRSC25672	38914	12911	2675	319
7	Eglp1	DRSC04502	9.85e5	8.18e5	1.47e6	1.51e6
